Earlier results, collected in patent US20110104313A1, “COMPOSITIONS FOR THE TREATMENT OF VAGINAL INFECTIONS WITH CHRONIC INFLAMMATION” (INDENA S.P.A, priority 2008, published 2011).
At least one structure is not confirmed: it was looked up by name or label, or the drawing left a doubt.

Assays:
[1] = system: capillary formation in Matrigel; conditions: in vivo; Jong-Pil Eun 2004
[2] = system: capillary formation in the chorioallantoic membrane; conditions: in vivo, Jong-Pil Eun 2004

C[n+]1cc2c3c(ccc2c2ccc4cc5c(cc4c21)OCO5)OCO3 [sanguinarine]
capillary formation in Matrigel [1]: suppresses capillary formation
capillary formation in the chorioallantoic membrane in chicken embryo [2]: suppresses capillary formation
